From publication PMC13577022
These are yes or no findings as the source states them, for the method shown. In cells and extracts the contact can be indirect. Binding can be weak; no strength is given.

By UniProt entry, the sequences of proteins in these tests, tags left out.
UniProt A0A0F6B922: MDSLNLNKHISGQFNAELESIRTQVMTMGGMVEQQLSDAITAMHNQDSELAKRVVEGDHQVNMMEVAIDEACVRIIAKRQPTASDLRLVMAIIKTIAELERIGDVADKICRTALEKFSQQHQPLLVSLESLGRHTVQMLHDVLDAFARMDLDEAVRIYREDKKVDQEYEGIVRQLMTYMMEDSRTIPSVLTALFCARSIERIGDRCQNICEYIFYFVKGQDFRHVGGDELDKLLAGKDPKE

Biological target: C-terminally GFP-tagged PhoR protein (Salmonella enterica serovar Typhimurium)
Test: co-IP

C-terminally His-tagged wild-type PhoU (from UniProt A0A0F6B922 1-241)
binding: binds
